The target in assay [1] is Panx1∆379-EGFP (mouse) (UniProt Q9JIP4). Kind of assay: cross-linking; intact transfected HEK293T cells, 20 μg/mL cycloheximide for 8 h beforehand; 3 mM cell-impermeable BS3 in crosslinking buffer (20 mM PBS, 1 mM CaCl2, 0.5 mM MgCl2, pH 8) for 30 min on ice; lysates on 4-20% gradient SDS-PAGE, Western blot for GFP; shows surface-localized oligomers.
Assay [2] addresses Panx1∆VS-EGFP (mouse) (UniProt Q9JIP4). Described as above.

By UniProt entry, the sequences of proteins in these tests, tags left out. Where a name states a change or a piece, a line headed by the entry shows the natural chain unless it says otherwise. Chains listed by the source or under a name are the forms on record and can include a tag or linker. Residues count along the entry.
Panx1∆379-EGFP (Q9JIP4, residues 1-378): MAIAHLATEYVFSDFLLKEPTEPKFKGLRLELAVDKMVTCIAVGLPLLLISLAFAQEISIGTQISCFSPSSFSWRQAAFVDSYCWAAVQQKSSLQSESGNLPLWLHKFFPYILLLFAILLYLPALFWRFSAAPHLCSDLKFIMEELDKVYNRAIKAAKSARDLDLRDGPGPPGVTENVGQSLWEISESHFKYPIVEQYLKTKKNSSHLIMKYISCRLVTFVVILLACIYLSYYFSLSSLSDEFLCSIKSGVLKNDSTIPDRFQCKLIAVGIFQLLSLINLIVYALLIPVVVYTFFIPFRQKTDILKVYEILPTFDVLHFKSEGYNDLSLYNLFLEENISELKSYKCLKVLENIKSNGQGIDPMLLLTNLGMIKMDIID
Panx1∆VS-EGFP (Q9JIP4, form named): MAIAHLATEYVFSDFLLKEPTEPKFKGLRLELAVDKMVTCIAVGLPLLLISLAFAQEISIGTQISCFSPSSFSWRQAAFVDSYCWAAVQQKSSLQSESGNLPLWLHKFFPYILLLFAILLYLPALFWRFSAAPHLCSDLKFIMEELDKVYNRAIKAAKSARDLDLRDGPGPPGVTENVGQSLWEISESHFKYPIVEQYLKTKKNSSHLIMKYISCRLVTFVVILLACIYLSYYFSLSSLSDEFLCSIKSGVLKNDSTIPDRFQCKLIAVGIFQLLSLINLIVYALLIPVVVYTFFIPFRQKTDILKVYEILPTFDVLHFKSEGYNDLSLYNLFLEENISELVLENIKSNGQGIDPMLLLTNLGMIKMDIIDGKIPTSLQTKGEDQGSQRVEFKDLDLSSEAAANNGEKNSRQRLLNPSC

Results are given in words; binding and its absence hold for the method and conditions named. In cells and extracts the contact can be indirect. Some entries that bind do so weakly or less than the wild type.

In the case of “Panx1∆379-EGFP (from UniProt Q9JIP4 1-378) (domain or fragment)”, the binding entry in assay [1] was “binds”.

On to “Panx1∆VS-EGFP (from UniProt Q9JIP4 1-426)”, for which the binding entry in assay [2] is on record as “binds”.

Values taken from publication PMC6611761.
